Test results published in patent US4687760 (dated 1987).
Strings that start with PEPTIDE1 are HELM notation: dots part the residues, brackets hold end groups and non-standard residues.

Assay: general procedure: solution-phase peptide synthesis; Boc-Trp-OSu active ester with DIEA
Conditions: late stage modification step

## PEPTIDE1{[Boc].W.[NlePsiCH2NHAsp].F.[am]}$$$$V2.0
  step yield: 97%
